From publication PMC11885570
Read-outs that look alike come from different tables or passages of the source. These are yes or no findings as the source states them, for the method shown. Binding seen in cells or lysates may run through a third protein. Some entries that bind do so weakly or less than the wild type. For some assays here: Where a sequence is shown, tags or fusion partners need not be part of it. Values belong to the molecule of their own block, whether it stands above or below them.

The chains behind the UniProt entries cited, without tags or fusion partners.
UniProt O14929: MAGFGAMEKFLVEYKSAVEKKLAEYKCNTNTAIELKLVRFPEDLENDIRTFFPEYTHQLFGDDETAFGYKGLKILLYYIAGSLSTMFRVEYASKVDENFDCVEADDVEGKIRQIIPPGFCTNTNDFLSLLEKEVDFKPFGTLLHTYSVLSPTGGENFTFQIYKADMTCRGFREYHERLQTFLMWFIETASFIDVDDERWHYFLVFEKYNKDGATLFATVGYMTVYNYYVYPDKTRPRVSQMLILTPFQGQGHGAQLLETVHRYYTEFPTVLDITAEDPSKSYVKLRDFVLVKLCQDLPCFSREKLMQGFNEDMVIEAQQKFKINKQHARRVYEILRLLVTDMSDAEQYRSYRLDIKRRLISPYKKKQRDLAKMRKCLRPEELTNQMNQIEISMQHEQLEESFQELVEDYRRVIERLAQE

Legend:
[1] = biological target: Flag-ACSL4 (pcDNA-Flag-ASCL4) (UniProt O60488); assay: co-IP; 293T cells co-transfected with Flag- and His-tagged plasmids; lysate with antibody and magnetic beads overnight at 4 °C, three washes, western blot
[2] = biological target: acyl-CoA synthase long-chain family member 4 (ACSL4), endogenous in NPC cells (human (endogenous in NPC cells)) (UniProt O60488); assay: co-IP; endogenous proteins in NPC cell lysate (IP buffer); antibody and magnetic beads overnight at 4 °C, three washes, western blot
[3] = biological target: T1, Flag-ACSL4-K383Q (pcDNA-Flag-ASCL4-K383Q), K383 acetylation mutant (UniProt O60488); assay: co-IP; 293T cells co-transfected with Flag- and His-tagged plasmids; lysate with antibody and magnetic beads overnight at 4 °C, three washes, western blot
T1 sequence: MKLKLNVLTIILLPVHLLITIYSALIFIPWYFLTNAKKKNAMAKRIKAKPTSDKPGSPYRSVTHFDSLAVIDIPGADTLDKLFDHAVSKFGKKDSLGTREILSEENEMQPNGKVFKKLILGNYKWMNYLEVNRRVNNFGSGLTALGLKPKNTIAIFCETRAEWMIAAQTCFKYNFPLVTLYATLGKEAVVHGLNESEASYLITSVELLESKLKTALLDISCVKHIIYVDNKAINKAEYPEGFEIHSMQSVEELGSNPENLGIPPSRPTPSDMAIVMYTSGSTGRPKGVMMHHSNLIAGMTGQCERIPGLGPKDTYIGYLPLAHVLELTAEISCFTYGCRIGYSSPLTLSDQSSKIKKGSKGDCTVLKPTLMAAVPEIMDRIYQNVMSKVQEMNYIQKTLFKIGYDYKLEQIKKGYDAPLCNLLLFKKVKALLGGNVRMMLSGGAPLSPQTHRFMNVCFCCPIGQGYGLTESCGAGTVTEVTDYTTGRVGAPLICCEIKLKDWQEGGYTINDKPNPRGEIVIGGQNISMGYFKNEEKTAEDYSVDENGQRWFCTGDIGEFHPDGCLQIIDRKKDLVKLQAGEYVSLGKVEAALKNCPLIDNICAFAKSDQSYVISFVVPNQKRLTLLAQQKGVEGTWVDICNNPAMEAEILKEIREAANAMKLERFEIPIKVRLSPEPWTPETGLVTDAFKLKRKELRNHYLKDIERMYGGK

[4] = biological target: Flag-ACSL4 (pcDNA-Flag-ASCL4) (UniProt O60488); assay: as above; remark: listed apart in the source
[5] = biological target: acyl-CoA synthase long-chain family member 4 (ACSL4), endogenous in NPC cells (human (endogenous in NPC cells)) (UniProt O60488); assay: co-IP; endogenous proteins in NPC cell lysate (IP buffer); antibody and magnetic beads overnight at 4 °C, three washes, western blot; remark: listed apart in the source

Molecule: His-HAT1 (pcDNA-His-HAT1) (from UniProt O14929 1-419) (enzyme)
binding [1]: binds

B2: F-box protein 10 (FBXO10), endogenous in NPC cells (protein, UniProt Q9UK96 1-956)
chain: MEAGGLPLELWRMILAYLHLPDLGRCSLVCRAWYELILSLDSTRWRQLCLGCTECRHPNWPNQPDVEPESWREAFKQHYLASKTWTKNALDLESSICFSLFRRRRERRTLSVGPGREFDSLGSALAMASLYDRIVLFPGVYEEQGEIILKVPVEIVGQGKLGEVALLASIDQHCSTTRLCNLVFTPAWFSPIMYKTTSGHVQFDNCNFENGHIQVHGPGTCQVKFCTFKNTHIFLHNVPLCVLENCEFVGSENNSVTVEGHPSADKNWAYKYLLGLIKSSPTFLPTEDSDFLMSLDLESRDQAWSPKTCDIVIEGSQSPTSPASSSPKPGSKAGSQEAEVGSDGERVAQTPDSSDGGLSPSGEDEDEDQLMYRLSYQVQGPRPVLGGSFLGPPLPGASIQLPSCLVLNSLQQELQKDKEAMALANSVQGCLIRKCLFRDGKGGVFVCSHGRAKMEGNIFRNLTYAVRCIHNSKIIMLRNDIYRCRASGIFLRLEGGGLIAGNNIYHNAEAGVDIRKKSNPLILCNQIHHGLRSGIVVLGNGKGIIRNNQIFSNKEAGIYILYHGNPVVSGNHIFKGRAAGIAVNENGKGLITENVIRENQWGGVDIRRGGIPVLRSNLICFGYSDGVVVGDEGKGLIEGNTIYANKGCGVWMMSSSLPHVTSNHVSYNGLYGVAVFSQKDGSSELPRGHRAQENFSEDGDAILWETELEKEDDPLRRPITIALVESNSINHNGASGLYVQSSEALHVITNVIHANGDRGITVAQSSQPTRVANNSISCNRQSGVKVEAQCKVELRGNGIYDNRGHGIITKGDSTIVIENDIIGNRGSGLQLLPRSDTKVIKNRIHSFRAYGIAVRGRAKALVQENIIFQGKTSKTIFQQISNNRECIMQNNKFLVFKKKSDTWRLVNPPARPHLENSLRRPSAAHNGQKVTAMATRITARVEGGYHSNRSVFCTIL
binding [5]: binds

Results, then the molecule that gave them:

binding [2]: binds
Molecule: histone acetyltransferase 1 (HAT1), endogenous in NPC cells (from UniProt O14929 1-419) (enzyme)

binding [3]: binds
binding [4]: binds
B1: His-FBXO10 (pcDNA-His-FBXO10) (protein, UniProt Q9UK96 1-956)
chain: B2 chain
